PubChem BioAssay AID1671190 (National Center for Advancing Translational Sciences (NCATS), 2021)
Where “and” joins values, the source holds several entries; their conditions need not be identical. Equal entries are not always repeated. Hit rate of the full screen: of about 580,000 compounds, about 6,100 (1.1%) were called active. Inconclusive means that the source gave no clear call. Such entries were picked first, then a sample of the others. The call rests on the fitted dose curve; in most records, active means well fitted inhibition curve with a large enough effect; inconclusive means small, poorly fitted or top-dose-only effect, or another doubt; inactive means no such curve, though single readings can be large or run the other way. Where the call is inconclusive, the potency comes from a doubtful curve fit.

Amino acid sequences for entries named in this document (tags omitted). A change or cut given only in a name is not applied to a line headed by its entry.
UniProt P18054: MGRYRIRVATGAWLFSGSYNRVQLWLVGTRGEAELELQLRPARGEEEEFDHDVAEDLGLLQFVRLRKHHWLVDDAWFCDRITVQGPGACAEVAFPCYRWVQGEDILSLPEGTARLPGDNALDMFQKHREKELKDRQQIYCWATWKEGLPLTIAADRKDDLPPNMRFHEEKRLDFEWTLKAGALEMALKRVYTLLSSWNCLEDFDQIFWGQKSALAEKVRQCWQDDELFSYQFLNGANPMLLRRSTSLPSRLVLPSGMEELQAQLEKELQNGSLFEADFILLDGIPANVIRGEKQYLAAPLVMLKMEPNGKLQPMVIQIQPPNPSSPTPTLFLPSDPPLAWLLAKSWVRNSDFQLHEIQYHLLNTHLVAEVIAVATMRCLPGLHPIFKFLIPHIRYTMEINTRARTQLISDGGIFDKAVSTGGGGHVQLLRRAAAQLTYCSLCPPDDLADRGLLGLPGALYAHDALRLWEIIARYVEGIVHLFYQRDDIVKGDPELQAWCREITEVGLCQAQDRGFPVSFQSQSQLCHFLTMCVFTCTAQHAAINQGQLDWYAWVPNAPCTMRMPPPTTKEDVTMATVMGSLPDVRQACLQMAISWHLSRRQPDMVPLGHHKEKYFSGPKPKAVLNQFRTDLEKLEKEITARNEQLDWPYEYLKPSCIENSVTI

Target: Polyunsaturated fatty acid lipoxygenase ALOX12 (Homo sapiens) (UniProt P18054)
Assay: Primary qHTS assay for inhibitors of human arachidonate 12S-lipoxygenase (ALOX12): Round 2
Conditions: purified 12hLO, xylenol orange hydroperoxide absorbance; activity change, negative = inhibition: at 108 µM (top of the series) unless noted
In short: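 Purified human 12hLO (150 nM final) in 25 mM Hepes, 0.01% Triton X-100, pH 7.0 was preincubated 15 min at room temperature with compound. Then 40 uM arachidonic acid was added, 30 min. Hydroperoxide was read by Fe-XO absorbance ratio 573/405 nm.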
On the % scale 0 is the no-effect control and ±100 the full control effect; potency means the concentration at half of the fitted maximal effect.

Question: For `Fc1ccc(CCNC(=S)Nc2ccc(F)c(Cl)c2)cc1`, which Potency is on record?
Answer: Its Potency is inconclusive: 44.7 µM [inhibitor, partial curve, poor fit].

Question: With `Cc1ccc2c(c1)cc(CN(Cc1ccco1)S(=O)(=O)c1ccccc1)c1nnnn12` as the molecule, how does the Potency read?
Answer: Its Potency is inconclusive: 39.8 µM [inhibitor, partial curve, poor fit].

Question: Which Potency does the source give for `CCN(CC)S(=O)(=O)c1ccc2oc(SCC(=O)Nc3cc(C)on3)nc2c1` here?
Answer: Its Potency is inconclusive: 35.5 µM [inhibitor, partial curve].

Question: For `CCOc1cc(/C=C2/NC(=O)NC2=O)cc(Br)c1OCC`, which Potency is on record?
Answer: The Potency was inconclusive: 63.1 µM [inhibitor, partial curve, poor fit].

Question: `C=CCNC(=O)/C(C#N)=C/c1ccc(OS(=O)(=O)c2ccc(C)cc2)c(OC)c1` was tested. Which Potency did it give?
Answer: Its Potency is “inactive”.

Question: With `CCOC(=O)C1CCN(CC(=O)Nc2c(C(=O)OC)[nH]c3cccc(Cl)c23)CC1` as the molecule, how does the Potency read?
Answer: The Potency was inconclusive: 44.7 µM [inhibitor, partial curve, poor fit].

Question: `CCCCOC(=O)C1CCC[C@@H](C)N1` (some centres not stated) was tested. Which Potency did it give?
Answer: Its Potency is inconclusive: 12.6 µM [inhibitor, partial curve, poor fit].

Question: How did the Potency turn out when `Cc1cc(C)cc(NS(=O)(=O)c2ccc(NC(=O)c3ccccc3C(=O)O)cc2)c1` was run?
Answer: Its Potency is inconclusive: 35.5 µM [inhibitor, partial curve, poor fit].

Question: `CCN(CC)CCN(C)Cc1ccc(Br)cc1` was tested. Which Potency did it give?
Answer: The Potency was inconclusive: 0.562 µM [inhibitor, full curve, poor fit].

Question: `O=c1[nH]nc(SCc2nc(-c3ccccc3)no2)n2nc(-c3ccco3)cc12` was tested. Which Potency did it give?
Answer: The Potency was inconclusive: 63.1 µM [inhibitor, partial curve, poor fit].

Question: For `CCOC(=O)c1ccc(NC(=O)CSCc2ccco2)cc1`, which Potency is on record?
Answer: Its Potency is inconclusive: 1.78 µM [inhibitor, full curve, poor fit].

Question: `COc1ccc(-c2noc(CC3CCN(C(=O)c4cc(OC)c(OC)c(OC)c4)CC3)n2)cc1` was tested. Which Potency did it give?
Answer: The Potency was “inactive”.

Question: `COCc1[nH][nH]c(=O)c1C=Nc1ccc(F)cc1F` was tested. Which Potency did it give?
Answer: The Potency was active: 12.6 µM.

Question: With `N[C@@H](Cn1c2c(c(=O)[nH]c1=O)CCC2)C(=O)O` as the molecule, how does the Potency read?
Answer: The Potency was inconclusive: 44.7 µM [inhibitor, partial curve, poor fit].

Question: How did the Potency turn out when `CCCN(CC1CCOC1)C(=O)Cc1cccc(Cl)c1` (configuration not stated) was run?
Answer: The Potency was inconclusive: 28.2 µM [inhibitor, partial curve].

Question: Which Potency does the source give for `Cc1ccccc1NNC(N)=S` here?
Answer: Its Potency is inconclusive: 31.6 µM [inhibitor, partial curve, poor fit].

Question: Which Potency does the source give for `CCOc1cccc(C2C(C(=O)c3cccs3)=C(O)C(=O)N2Cc2cccnc2)c1` (configuration not stated) here?
Answer: The Potency was “inactive”.

Question: With `CCN1C(=O)C2(CCN(S(=O)(=O)c3cc(F)ccc3OC)CC2)c2ccccc21` as the molecule, how does the Potency read?
Answer: The Potency was inconclusive: 20 µM [inhibitor, full curve, poor fit].

Question: `CCCCN1C(=O)C(NC(=O)c2ccc(C(C)(C)C)cc2)(C(F)(F)F)C2=C1CC(C)(C)CC2=O` (configuration not stated) was tested. Which Potency did it give?
Answer: The Potency was inconclusive: 3.55 µM [inhibitor, full curve, poor fit].

Question: With `COc1ccc(NC(=O)CSc2nccn2Cc2ccco2)c(OC)c1` as the molecule, how does the Potency read?
Answer: The Potency was inconclusive: 126 µM [inhibitor, partial curve, poor fit].

Question: Which Potency does the source give for `Cc1ccc(C2=CC(c3ccccc3C)n3nnnc3N2)cc1` (configuration not stated) here?
Answer: The Potency was inconclusive: 79.4 µM [inhibitor, single point].

Question: `Cc1ccc2cc(CN(Cc3ccc4c(c3)OCO4)Cc3nnnn3Cc3ccco3)c(=O)[nH]c2c1C` was tested. Which Potency did it give?
Answer: Its Potency is active: 12.6 µM.

Question: How did the Potency turn out when `Cc1ccc(-n2c(SCC(=O)NCC3CCCO3)nc3n[nH]c(C)c3c2=N)cc1Cl` (configuration not stated) was run?
Answer: The Potency was “inactive”.

Question: Which Potency does the source give for `Cc1c(C(=O)O)sc(S(=O)(=O)N2CCN(C(=O)Cc3ccccc3)CC2)c1C(=O)O` here?
Answer: Its Potency is inconclusive: 10 µM [inhibitor, partial curve, poor fit].

Question: `Cc1ccc(C(=O)C(OC(=O)CNS(=O)(=O)c2ccccc2)c2ccccc2)cc1` (configuration not stated) was tested. Which Potency did it give?
Answer: The Potency was inconclusive: 63.1 µM [inhibitor, partial curve, poor fit].

Question: Which Potency does the source give for `FC(F)Sc1ccc(NC(=S)N(Cc2ccccc2)Cc2ccccc2)cc1` here?
Answer: Its Potency is inconclusive: 100 µM [inhibitor, single point].

Question: For `CCCn1nc(C(=O)Nc2ncc(Cc3cccc(Cl)c3)s2)ccc1=O`, which Potency is on record?
Answer: Its Potency is “inactive”.

Question: With `O=C1c2[nH]nc(-c3ccccc3O)c2C(c2ccc(F)cc2)N1CCO` (configuration not stated) as the molecule, how does the Potency read?
Answer: The Potency was inconclusive: 12.6 µM [inhibitor, partial curve, poor fit].

Question: Which Potency does the source give for `CC(OC(=O)CCNS(=O)(=O)c1ccc(Cl)cc1)C(=O)N(C)Cc1ccccc1` (configuration not stated) here?
Answer: The Potency was inconclusive: 89.1 µM [inhibitor, partial curve, poor fit].

Question: How did the Potency turn out when `CC(C)c1ccc(C(=O)NC(=S)Nc2ccc3[nH]c(=O)[nH]c3c2)cc1` was run?
Answer: Its Potency is inconclusive: 112 µM [inhibitor, partial curve, poor fit].

Question: `CC1(C(=O)NCc2ccc(Cl)cc2)CCCCC(=O)N1` (configuration not stated) was tested. Which Potency did it give?
Answer: Its Potency is inconclusive: 15.8 µM [inhibitor, full curve, poor fit].

Question: How did the Potency turn out when `Cc1cn2nc(C(=O)NCCC3=CCCCC3)cc2c(N2CCCC2)n1` was run?
Answer: The Potency was inconclusive: 14.1 µM [inhibitor, partial curve].

Question: Which Potency does the source give for `COc1cc2c(N3CCOCC3)cc(O)c(CC(=O)Nc3ccccc3)c2cc1OC` here?
Answer: Its Potency is inconclusive: 39.8 µM [inhibitor, single point].

Question: Which Potency does the source give for `CN(C)Cc1cc(CC2(NCc3ccc(C#N)cc3)COC2)no1` here?
Answer: Its Potency is “inactive”.

Question: Which Potency does the source give for `CCOC(=O)c1c(C)sc(-c2c(-c3ccc(OC)c(F)c3)[nH]c3[nH]c(=O)[nH]c(=O)c23)c1O` here?
Answer: Its Potency is inconclusive: 70.8 µM [inhibitor, partial curve, poor fit].

Question: For `COc1ccc2c(C)c(CCC(=O)Nc3ccc(C)cc3O)c(=O)oc2c1`, which Potency is on record?
Answer: Its Potency is “inactive”.

Question: For `N#Cc1c(NC(=O)CSc2nc3ccccc3[nH]2)sc2c1CCC2`, which Potency is on record?
Answer: The Potency was inconclusive: 31.6 µM [inhibitor, partial curve].

Question: How did the Potency turn out when `Cc1cc(OC(=O)c2ccc(CSc3ccc(Cl)cc3)cc2)ccc1C(C)C` was run?
Answer: The Potency was “inactive”.

Question: With `COc1ccc(-c2nc(SCC(=O)N3CCCCC3C)n[nH]2)cc1` (configuration not stated) as the molecule, how does the Potency read?
Answer: Its Potency is inconclusive: 12.6 µM [inhibitor, partial curve, poor fit].

Question: `O=C(CSc1nnc(-c2ccncc2)n1Cc1ccco1)Nc1nccs1` was tested. Which Potency did it give?
Answer: The Potency was inconclusive: 31.6 µM [inhibitor, partial curve, poor fit].

Question: How did the Potency turn out when `O=C(O)c1cc(Cl)c(Cl)c(Cl)c1` was run?
Answer: The Potency was inconclusive: 70.8 µM [inhibitor, partial curve, poor fit].

Question: With `O=[N+]([O-])c1ccc(N2CCN(C(=S)NC3CCCCC3)CC2)cc1` as the molecule, how does the Potency read?
Answer: The Potency was inconclusive: 35.5 µM [inhibitor, partial curve, poor fit].

Question: `CC1CCCN(CCCNC(=O)c2ccc3c(c2)N(Cc2cccc(Cl)c2)C(=O)c2ccccc2S3=O)C1` (configuration not stated) was tested. Which Potency did it give?
Answer: Its Potency is inconclusive: 89.1 µM [inhibitor, single point].

Question: Which Potency does the source give for `CCc1nc2c(NC(=O)Nc3cccc(C(=O)OC)c3)cccn2n1` here?
Answer: Its Potency is active: 70.8 µM.

Question: `CCc1ccccc1NC(=O)CSc1ncc(S(=O)(=O)c2ccc(C(C)C)cc2)c(N)n1` was tested. Which Potency did it give?
Answer: Its Potency is “inactive”.

Question: How did the activity change, negative = inhibition turn out when `O=C(NCCCc1nc2ccccc2n1Cc1ccc(Cl)cc1Cl)c1ccco1` was run?
Answer: Its activity change, negative = inhibition is inconclusive: -41.9% [inhibitor].

Question: For `O=C(CNS(=O)(=O)c1cccs1)NCc1ccc(F)cc1`, which Potency is on record?
Answer: The Potency was inconclusive: 50.1 µM [inhibitor, partial curve, poor fit].

Question: With `CCOC(=O)C1CCN(C(=O)Nc2ccc(OC(F)(F)F)cc2)CC1` as the molecule, how does the Potency read?
Answer: Its Potency is inconclusive: 100 µM [inhibitor, single point].

Question: How did the Potency turn out when `Cn1cc(Cc2ccccc2)c(=O)c(Cc2ccccc2)c1` was run?
Answer: The Potency was inconclusive: 39.8 µM [inhibitor, partial curve, poor fit].

Question: For `CC1=NNC(=O)C1CCC(=O)N/N=C\c1cccc(Cl)c1` (configuration not stated), which Potency is on record?
Answer: Its Potency is inconclusive: 251 µM [inhibitor, partial curve, poor fit].

Question: Which Potency does the source give for `CCc1ccc(CNC(=O)c2c(C)oc3ncn(CC(C)C)c(=O)c23)cc1` here?
Answer: Its Potency is inconclusive: 112 µM [inhibitor, partial curve, poor fit].

Question: Which Potency does the source give for `C=CCn1c(SCC(=O)Nc2nc3ccccc3s2)nc(O)c(CC)c1=O` here?
Answer: Its Potency is inconclusive: 100 µM [inhibitor, single point].

Question: Which Potency does the source give for `O=C(CCl)N(c1ccccc1)C1CCCCC1` here?
Answer: The Potency was inconclusive: 20 µM [inhibitor, partial curve, poor fit].

Question: For `COc1cc(C(=O)N/N=C/c2ccc(OC(=O)c3cccc(C)c3)cc2)ccc1O`, which Potency is on record?
Answer: Its Potency is inconclusive: 112 µM [inhibitor, partial curve, poor fit].

Question: `Cc1ccccc1NC(=O)COC(=O)CCc1nc2ccccc2c(=O)[nH]1` was tested. Which Potency did it give?
Answer: The Potency was inconclusive: 22.4 µM [inhibitor, partial curve, poor fit].

Question: `COc1ccc(CNC(=O)CCCn2c(=O)c3cccn3c3cccnc32)cc1` was tested. Which Potency did it give?
Answer: Its Potency is inconclusive: 126 µM [inhibitor, single point] and inconclusive: 126 µM [inhibitor, partial curve, poor fit].

Question: With `O=c1c(O[C@@H]2OC([C@H](O)CO)[C@H](O)[C@H]2O)c(-c2ccc(O)c(O)c2)oc2cc(O)cc(O)c12` (some centres not stated) as the molecule, how does the Potency read?
Answer: Its Potency is inconclusive: 79.4 µM [inhibitor, partial curve, poor fit].

Question: With `Cc1cc(=O)[nH]c2ccc(Cl)cc12` as the molecule, how does the Potency read?
Answer: The Potency was “inactive”.

Question: For `CCN(CC)CCCNC(=O)CN1N=C(c2ccc(OC)cc2)CCC1=O`, which Potency is on record?
Answer: The Potency was “inactive”.

Question: How did the Potency turn out when `CCOCCn1c(SCC(=O)OCC)nc2c1c(=O)[nH]c(=O)n2C` was run?
Answer: The Potency was inconclusive: 141 µM [inhibitor, partial curve, poor fit].

Question: `CCc1ccccc1Nc1ccc(C(=O)O)cc1N` was tested. Which Potency did it give?
Answer: Its Potency is “inactive”.

Question: For `Cc1[nH]c2ccccc2c1-c1csc(NC(=O)CN2CCOCC2)n1`, which Potency is on record?
Answer: Its Potency is “inactive”.
